Assay results from patent US8030325B2, “Biosynthetic gene cluster for the production of a complex polyketide” (Wyeth LLC, priority 2004, dated 2011).
At least one structure is not confirmed: it was looked up by name or label, or the drawing left a doubt.

Test system: mesencephalic dopanergic neuron cultures
Assay: High-affinity 3H-DA uptake in ventral mesencephalic cultures, with or without MPP+ exposure
Assay type: cell-based, rat
Experimental: Ventral mesencephalic cultures were prepared from E15 rat embryos and maintained for […] before experimentation according to the method of Pong et al., J Neurochem.
Cultures were then exposed to 10 μM 1-methyl-4-phenylpyridinium (MPP+) for 1 hr, in the presence of drug. After the 1 hr exposure, media was changed 3×, and fresh drug was added for an additional 24 hr or 48 hr.

Question: With `C=CC[C@@H]1/C=C(\C)C[C@H](C)C[C@H](OC)[C@H]2O[C@@](O)(C(=O)C(=O)N3CCCC[C@H]3C(=O)O[C@H](/C(C)=C/[C@@H]3CC[C@@H](O)[C@H](OC)C3)[C@H](C)[C@@H](O)CC1=O)[C@H](C)C[C@@H]2OC` [FK506, reference compound] as the compound, how does the “DA uptake in normal mesencephalic dopanergic neuron cultures” value (normal cultures, no MPP+) read?
Answer: enhanced DA uptake

Question: And the “protection against MPP toxicity (3H-DA uptake)” value (pre-treatment 1 hr or 24 hr, MPP+ 1 hr, recovery 24 hr or 48 hr)?
Answer: partial, but significant protection
